# PubChem BioAssay AID588827 (Broad Institute, 2011)
# The campaign covered roughly 2,400 compounds. About 20 (0.8%) were called active. The inconclusive results got no clear call from the source; some entries with a clear call stand among them for comparison.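 The calls were made as follows: active = fitted half-maximal concentration for signal decrease at or below twice the top tested dose, in every repeat run; inconclusive = repeat runs disagree, or flat partial inhibition, or poor fit; inactive = all runs flat, wrong-direction or potency beyond limit.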
# Test: GFP reporter loss versus dox-driven RFP – NIH3T3 R4 cells, cherry-pick, set 4, dose response (AID 588827);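 also: 0% = neutral control wells and -100% = didemnin B at 400 nM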
# Details: NIH3T3 R4 HSF-1 GFP reporter, heat shock, 48 h; at 19.5 µM (top of the series) unless noted
row,SMILES,"activity change, negative = inhibition"
1,Cc1cccc(C)c1OCC(=O)NCc1ccccc1,inconclusive: 10.6%
2,Cc1ccc(C)c(NC(=O)COc2coc(CN3CCc4ccccc4C3)cc2=O)c1,inactive: -27.9%
3,Oc1ccc(Br)cc1/C=N/Nc1ccccn1,inconclusive: 25.6%
4,O=C(Nc1ccc2c(c1)ncn2C1CCCCC1)c1ccco1,inactive: -27%
5,CC(NC(=O)/C(C#N)=C/c1ccc([N+](=O)[O-])o1)c1ccccc1 (stereo not given),inconclusive: 92.4%
6,Cc1oc2c(c1C(=O)NCc1cccnc1)C(=O)c1ccccc1C2=O,inconclusive: -54.1%
7,Cc1ccc2c(c1)N(CC(=O)O)C(=O)CO2,inconclusive: 14.4%
8,COc1ccc(-n2c(-c3cccc(OC)c3)nc(=S)c3c2CCCC3)cc1,inconclusive: -11.1%
9,Cn1c(=O)cc(SCC(=O)N2CCN(C(=O)c3ccco3)CC2)c2ccccc21,inactive: -11.5%
10,CCC(NC(=S)NC1CCCCC1)c1ccccc1 (stereo not given),inactive: 3.39%
11,Cc1ccc(OCc2cc(C(=O)N(C)CCc3nc4ccccc4[nH]3)no2)cc1C,inconclusive: -38.4%
12,COc1cc(NS(=O)(=O)c2ccc(C)cc2)c2ncccc2c1,inconclusive: -18.9%
13,O=C(Nc1ccc(Cl)cc1)/C(=C/c1cccc(O)c1)c1nc2ccccc2s1,inconclusive: -49.9%
14,C#CC(=O)N(c1cc(OC)ccc1OC)C(C(=O)NC1CCCC1)c1cccs1 (stereo not given),inconclusive: -37.8%
15,O=C(N/N=C/c1ccccn1)c1ccc([N+](=O)[O-])cc1,inactive: -24.2%
16,O=C(Nc1ccc(-n2ccnc2P(=O)(O)c2ccccc2)cc1)c1ccccc1Cl,inconclusive: -9.95%
17,COc1ccc(C(=O)c2c(C(F)(F)F)oc3c2C(=O)c2ccccc2C3=O)cc1,inconclusive: -37.9%
18,Cc1ccccc1NC(=S)NNC(=O)c1csc2c1CCC(C)C2 (stereo not given),inconclusive: -52.5%
19,CCN(C(=O)Cn1c([N+](=O)[O-])cnc1C)c1ccccc1,inconclusive: -16.7%
20,N#Cc1nc(-c2ccco2)oc1N1CCN(Cc2ccccc2)CC1,inactive: -1.82%
21,CC(C)c1nc2ccccc2c2nnc(SCC(=O)NCc3ccco3)n12,inactive: -7.5%
22,COc1ccc(CC(C)Nc2cccc(SC)c2)cc1 (stereo not given),inactive: -7.7%
23,Cn1c(=O)c2ncn(CC(=O)Nc3ccc4c5c(cccc35)CC4)c2n(C)c1=O,inconclusive: -5.8%

row,SMILES,"activity change, negative = inhibition"
1,Cc1ccc(/C=C(\NC(=O)c2ccccc2)C(=O)N2CCCC2C(=O)O)cc1 (stereo not given),inactive: -6.42%
2,CCCSc1nnc(CNS(=O)(=O)c2ccc(C)cc2)n1C,inactive: 15.3%
3,COc1ccc(C(=O)/C=C/C(=O)N(CC(=O)NC2CCCCC2)Cc2ccc(F)cc2)c(O)c1,inconclusive: -42.8%
4,COc1ccc(NC(C)=O)cc1NC(=O)CN1CCN(CC(=O)Nc2ccccc2Cl)CC1,inactive: -18.4%
5,COC(=O)C1=C(C)N(CCCC(=O)O)C(=O)NC1c1ccc(C#N)cc1 (stereo not given),inactive: -11.5%
6,O=C(Nc1ccc(N2CCCCC2)cc1)c1ccccn1,inactive: 14.8%
7,CCCCNC(=O)C(=O)N/N=C/c1ccc(C(=O)OC)cc1,inactive: -8.74%
8,C=CCn1c(=NC(=O)C2CC2)sc2cc(NC(C)=O)ccc21,inactive: 2.06%
9,O=C(O)c1ccc2nc(-c3ccccc3)sc2c1,inactive: -4.16%
10,CC(C)c1ccc(OCCCN2CCCC2)cc1,inconclusive: 11.2%
11,COc1cccc(C(c2sc3nc(C)nn3c2O)N2CCN(C(=O)c3ccco3)CC2)c1 (stereo not given),inactive: -17.6%
12,O=C(CCCOc1ccccc1)Nc1nccs1,inconclusive: -10.2%
13,NNC(=O)c1nn(-c2ccc(Cl)cc2)cc1O,inconclusive: 31.6%
14,COc1ccc(CCNC(=O)c2cccc([N+](=O)[O-])c2)cc1OC,inconclusive: -29.5%
15,CCOC(=O)c1c(NC(=O)CSc2nnc(-c3c[nH]c4ccccc34)n2C)sc2c1CCCC2,inactive: -23.8%
16,COc1ccc(-n2c(C)c(C(C)=O)c(C(C)=O)c2C)cc1,inactive: -21.1%
17,Cc1cc(-c2ccccc2)c2ccc(NC(=O)C(C)(C)C)nc2n1,inconclusive: -26%
18,O=C(CCl)N=c1sccn1Cc1ccc(Cl)cc1Cl,inactive: -29.8%
19,COc1cc(NC(=O)Cn2ncc(Cl)c(Cl)c2=O)c(C)cc1[N+](=O)[O-],inconclusive: 46.7% [at 10 µM]
20,Cc1cc(S(=O)(=O)N2CCN=C2c2ccccc2)c(C)cc1Cl,inactive: -13.8%
21,CCOC(=O)c1ccc(NC(=S)NC(=O)C2CCCC2)cc1,inactive: -32%
22,O=C(O)c1cc2cc(F)ccc2[nH]1,inconclusive: 8.45%
23,Cc1nnsc1S(=O)c1ccc(Cl)c(Cl)c1 (stereo not given),inconclusive: 8.34%

# Three structures already listed, sorted by count of non-hydrogen atoms, ascending.
row,SMILES,"activity change, negative = inhibition"
18,O=C(CCl)N=c1sccn1Cc1ccc(Cl)cc1Cl,inactive: -29.8%
5,COC(=O)C1=C(C)N(CCCC(=O)O)C(=O)NC1c1ccc(C#N)cc1 (stereo not given),inactive: -11.5%
3,COc1ccc(C(=O)/C=C/C(=O)N(CC(=O)NC2CCCCC2)Cc2ccc(F)cc2)c(O)c1,inconclusive: -42.8%

# More compounds.

row,SMILES,"activity change, negative = inhibition"
1,Oc1c(C(Nc2nccs2)c2ccc(C(F)(F)F)cc2)ccc2cccnc12 (stereo not given),inconclusive: 75.7%
2,CCOc1cc(CNCC2CCCN2CC)cc(Cl)c1OC (stereo not given),inconclusive: 13.6%
3,CSc1nc2ccc(NS(=O)(=O)c3ccc([N+](=O)[O-])cc3)cc2s1,inconclusive: -20.4%
4,O=C(Nc1nnc(S(=O)(=O)N2CCCCCC2)s1)c1cccc(Br)c1,inconclusive: -88.9%
5,O=C(NCc1ccc2c(c1)OCO2)c1nc(S(=O)(=O)Cc2ccccc2)ncc1Cl,inconclusive: -75%
6,Cc1ccc(C)c(N2CCN(C(=O)CCCCCn3c(=S)[nH]c4ccc(N5CCOCC5)cc4c3=O)CC2)c1,inconclusive: -40.3%
7,Cc1c(Cc2ccccc2)sc(/N=C/c2c(O)ccc3ccccc23)c1C(N)=O,inconclusive: -45.6%
8,O=S(=O)(Nc1ccncc1)c1ccc(Cl)cc1,inconclusive: -4.03%
9,O=C1SCC(c2ccccc2)=NN1Cc1ccccc1,inconclusive: 5.45%
10,COc1ccc([C@@H]2C[C@@H](c3ccccc3)Oc3c(C)ccc(C(C)C)c32)cc1,inconclusive: -13.4%
11,C=CCN1C(=O)C(Cc2ccc(OC)cc2)S/C1=N/N=C/c1ccco1 (stereo not given),inconclusive: 17.2%
12,CCOc1ccc(NCC(=O)c2ccc(C)cc2)cc1,inconclusive: -92.9%
13,CCOC(=O)c1cc2sccc2n1CC(=O)Nc1ccc(OC)cc1,inactive: -14.8%
14,N=C(N)SCc1ccccc1Cl,inactive: 19.3%
15,Cc1cccc(CS(=O)(=O)Cc2ccc(C(=O)NCc3cccs3)o2)c1,inactive: -20.7%
16,CCOCCn1c(SCC(=O)OCc2ccccc2)nc2c1c(=O)[nH]c(=O)n2C,inactive: -11.3%
17,Cc1cc(N2CCC(C)CC2)n2ncc(-c3ccccc3)c2n1,inconclusive: 6.42%
18,Cc1ccc(/C=C2\SC(=S)N(CCCC(=O)Nc3ccccn3)C2=O)cc1,inconclusive: -10.1%
19,COc1ccc(CCNC(=O)CN(c2ccc(OC)c(OC)c2)S(C)(=O)=O)cc1OC,inactive: -22.4%
20,COc1cccc(C(=O)CC(=O)C(=O)Nc2cc(OC)c(OC)c(OC)c2)c1,inconclusive: -1.43%
21,COc1cccc(-n2c(SCC(=O)NCC3CCCO3)nc3c(c2=O)SCC3)c1 (stereo not given),inconclusive: 13.6%
22,CCOC(=O)c1c(C)nc2c(C)cccn12,inactive: -16.6%
23,CC(CN1CCOCC1)OC(=O)C(c1ccccc1)c1ccccc1 (stereo not given),inactive: 3.47%

row,SMILES,"activity change, negative = inhibition"
1,Cc1[nH]c2ccccc2c1/C=C/c1nc2ccccc2c(=O)n1-c1cccc([N+](=O)[O-])c1,inactive: -7.65%
2,COc1cccc(C(=O)c2c[nH]c(C(=O)NCc3ccco3)c2)c1,inactive: -5.49%
3,CCOC(=O)C1CCN(C(=O)CC(C)c2ccccc2)CC1 (stereo not given),inconclusive: -30.1%
4,Cc1nn(Cc2ccccc2)c(C)c1NC(=O)c1noc2c1CCc1ccccc1-2,inconclusive: -21.3%
5,CCCOc1ccc(/C=N/NC(=S)Nc2ccccc2[N+](=O)[O-])c(O)c1,inconclusive: 9.22%
6,COc1cccc(-c2cc3nc4c(c(NCC(C)(C)CN(C)C)n3n2)CCCC4)c1,inactive: -15.6%
7,O=C(O)c1cccc(COc2ccc3c(c2)CCC3)c1,inactive: 19.3%
8,O=C(CSC1=NNC(c2ccccn2)S1)Nc1ccccc1 (stereo not given),inconclusive: 8.5%
9,Oc1ccc(CN2CCCc3ccccc32)c2cccnc12,inconclusive: -64%
10,Cc1csc(NC(=O)CSc2ccc(-c3ccccc3)nn2)n1,inconclusive: 5.5%
11,O=C(NCc1ccc2c(c1)OCO2)c1cc2c(s1)CS(=O)(=O)C2,inconclusive: -6.5%
12,CCOc1ccc(-c2nc(CSCC(=O)N3CCN(c4cccc(OC)c4)CC3)c(C)o2)cc1,inactive: -28.1%
13,COc1ccccc1N1CCN(C(c2ccc(N(C)C)cc2)c2nnnn2CCc2ccccc2)CC1 (stereo not given),inconclusive: -41.3%
14,CCOC(=O)c1sc(NC(=O)CSc2n[nH]c(-c3ccccc3)n2)c(C#N)c1C,inconclusive: -47.9%
15,COc1ccc(Cn2nnnc2C(c2cc3cccc(C)c3[nH]c2=O)N2CCN(C)CC2)cc1 (stereo not given),inactive: 7.29%
16,CCCS(=O)(=O)N1CCc2cc(OC)c(OC)cc2C1,inactive: -3.49%
17,CCNC(=S)NNC(=O)c1cc(-c2ccc(OCC)cc2)nc2ccccc12,inconclusive: -17.2%
18,CCOC(=O)c1ccc(-n2[nH]c(-c3ccccc3)cc2=O)cc1,inconclusive: -52.6%
19,O=C(C1=C[C@H](c2ccc(Br)cc2)C[C@H](OCCCCO)O1)N1CCN(Cc2ccc3c(c2)OCO3)CC1,inconclusive: 19.8%
20,COCCNC(=O)CSC1=N/C(=C/c2ccc(Cl)c(Cl)c2)C(=O)N1c1ccccc1F,inconclusive: -15.2%
21,COc1ccc(S(=O)(=O)N2CCCC2)cc1C(C)C,inactive: -16.1%

# Quoted at random: 2 entries already listed, in no set order.
row,SMILES,"activity change, negative = inhibition"
3,CCOC(=O)C1CCN(C(=O)CC(C)c2ccccc2)CC1 (stereo not given),inconclusive: -30.1%
8,O=C(CSC1=NNC(c2ccccn2)S1)Nc1ccccc1 (stereo not given),inconclusive: 8.5%
